The target in test [1] is T1, Synechococcus elongatus RNA polymerase core enzyme (wild type) (Synechococcus elongatus PCC 7942) (UniProt Q31L30+Q31N17+P42079+Q31N15+Q31MH9). Nature of the test: cryo-EM structure; iNTP-free EC-NusG: 5 μM cyRNAP with DNA/RNA scaffold, then 7 μM NusG, 37 °C, storage buffer, CHAPSO added before vitrification; 3 Å; both purified.
In test [2] the target is T2, β'2 subunit of Synechococcus elongatus RNA polymerase (Synechococcus elongatus PCC 7942) (UniProt Q31N15).
T2 sequence: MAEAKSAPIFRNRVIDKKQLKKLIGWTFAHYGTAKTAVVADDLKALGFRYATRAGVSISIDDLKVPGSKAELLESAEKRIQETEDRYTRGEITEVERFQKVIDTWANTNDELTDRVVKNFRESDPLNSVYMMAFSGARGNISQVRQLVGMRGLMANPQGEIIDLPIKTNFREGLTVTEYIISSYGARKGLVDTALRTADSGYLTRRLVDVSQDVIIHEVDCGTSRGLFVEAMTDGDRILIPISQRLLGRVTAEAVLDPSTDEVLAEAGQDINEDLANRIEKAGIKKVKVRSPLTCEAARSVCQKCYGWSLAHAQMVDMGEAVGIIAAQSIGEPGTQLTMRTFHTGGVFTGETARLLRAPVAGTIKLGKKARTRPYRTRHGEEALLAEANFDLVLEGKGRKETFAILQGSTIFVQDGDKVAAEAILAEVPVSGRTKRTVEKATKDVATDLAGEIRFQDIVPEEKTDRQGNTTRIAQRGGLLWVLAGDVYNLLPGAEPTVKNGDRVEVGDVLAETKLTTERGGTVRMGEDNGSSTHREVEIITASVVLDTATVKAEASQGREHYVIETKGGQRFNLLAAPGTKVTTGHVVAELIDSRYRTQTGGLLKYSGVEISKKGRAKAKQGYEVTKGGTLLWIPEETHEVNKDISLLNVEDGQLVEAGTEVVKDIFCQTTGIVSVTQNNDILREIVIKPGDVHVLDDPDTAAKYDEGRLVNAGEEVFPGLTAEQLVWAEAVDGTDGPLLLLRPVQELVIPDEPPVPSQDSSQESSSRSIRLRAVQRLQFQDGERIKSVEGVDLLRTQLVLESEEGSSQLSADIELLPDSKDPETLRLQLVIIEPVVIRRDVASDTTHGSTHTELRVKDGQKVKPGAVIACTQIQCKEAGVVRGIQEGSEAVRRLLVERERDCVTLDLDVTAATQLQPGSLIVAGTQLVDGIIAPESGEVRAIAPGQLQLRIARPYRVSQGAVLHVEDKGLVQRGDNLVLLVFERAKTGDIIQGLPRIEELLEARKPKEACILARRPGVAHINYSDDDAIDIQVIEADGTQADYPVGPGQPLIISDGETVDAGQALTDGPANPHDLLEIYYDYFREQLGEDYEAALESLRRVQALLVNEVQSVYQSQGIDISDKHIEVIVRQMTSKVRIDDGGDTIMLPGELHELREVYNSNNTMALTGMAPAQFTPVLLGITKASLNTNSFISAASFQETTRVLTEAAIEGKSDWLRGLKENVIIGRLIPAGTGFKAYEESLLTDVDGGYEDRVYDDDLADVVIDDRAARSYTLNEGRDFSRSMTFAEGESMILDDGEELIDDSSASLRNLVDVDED
The test is described as above.

The chains behind the UniProt entries cited, without tags or fusion partners. Where a name states a change or a piece, a line headed by the entry shows the natural chain unless it says otherwise.
UniProt Q31L30: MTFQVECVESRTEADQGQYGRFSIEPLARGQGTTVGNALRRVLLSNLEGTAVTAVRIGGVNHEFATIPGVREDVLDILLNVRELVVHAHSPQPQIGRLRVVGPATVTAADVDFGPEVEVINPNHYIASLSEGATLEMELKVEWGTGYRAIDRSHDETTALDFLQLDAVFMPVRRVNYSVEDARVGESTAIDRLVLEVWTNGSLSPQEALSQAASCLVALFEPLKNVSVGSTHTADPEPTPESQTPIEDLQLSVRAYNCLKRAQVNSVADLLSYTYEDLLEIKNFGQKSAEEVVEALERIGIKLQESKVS
UniProt P42079: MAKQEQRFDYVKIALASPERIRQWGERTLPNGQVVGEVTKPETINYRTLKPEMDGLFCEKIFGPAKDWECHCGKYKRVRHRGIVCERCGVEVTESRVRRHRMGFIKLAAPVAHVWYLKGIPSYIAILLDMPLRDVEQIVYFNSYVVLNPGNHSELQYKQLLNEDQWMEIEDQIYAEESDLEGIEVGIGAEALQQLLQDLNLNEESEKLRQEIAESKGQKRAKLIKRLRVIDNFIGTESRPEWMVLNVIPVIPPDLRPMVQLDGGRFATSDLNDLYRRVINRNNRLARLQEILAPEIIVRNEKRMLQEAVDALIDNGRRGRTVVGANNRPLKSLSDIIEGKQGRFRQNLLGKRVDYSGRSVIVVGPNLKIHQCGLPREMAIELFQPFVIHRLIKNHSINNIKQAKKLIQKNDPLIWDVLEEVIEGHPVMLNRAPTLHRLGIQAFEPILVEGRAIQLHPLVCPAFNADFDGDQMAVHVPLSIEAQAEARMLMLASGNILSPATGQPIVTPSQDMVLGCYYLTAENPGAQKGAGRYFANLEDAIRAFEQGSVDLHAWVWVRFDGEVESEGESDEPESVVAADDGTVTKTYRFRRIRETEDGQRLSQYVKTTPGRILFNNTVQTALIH
UniProt Q31MH9: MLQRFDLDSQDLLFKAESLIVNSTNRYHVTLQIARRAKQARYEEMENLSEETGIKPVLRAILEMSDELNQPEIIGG

The target of test [3] is T1, Synechococcus elongatus RNA polymerase core enzyme (wild type) (Synechococcus elongatus PCC 7942). Nature of the test: cryo-EM structure; iNTP-bound EC-NusG: EC with NusG plus 1 mM 3'-deoxyATP and CTP, 5 min at 37 °C; 2.79 Å; both purified.
Test [4] deals with T3, β subunit of Synechococcus elongatus RNA polymerase (Synechococcus elongatus PCC 7942) (UniProt Q31N17).
T3 sequence: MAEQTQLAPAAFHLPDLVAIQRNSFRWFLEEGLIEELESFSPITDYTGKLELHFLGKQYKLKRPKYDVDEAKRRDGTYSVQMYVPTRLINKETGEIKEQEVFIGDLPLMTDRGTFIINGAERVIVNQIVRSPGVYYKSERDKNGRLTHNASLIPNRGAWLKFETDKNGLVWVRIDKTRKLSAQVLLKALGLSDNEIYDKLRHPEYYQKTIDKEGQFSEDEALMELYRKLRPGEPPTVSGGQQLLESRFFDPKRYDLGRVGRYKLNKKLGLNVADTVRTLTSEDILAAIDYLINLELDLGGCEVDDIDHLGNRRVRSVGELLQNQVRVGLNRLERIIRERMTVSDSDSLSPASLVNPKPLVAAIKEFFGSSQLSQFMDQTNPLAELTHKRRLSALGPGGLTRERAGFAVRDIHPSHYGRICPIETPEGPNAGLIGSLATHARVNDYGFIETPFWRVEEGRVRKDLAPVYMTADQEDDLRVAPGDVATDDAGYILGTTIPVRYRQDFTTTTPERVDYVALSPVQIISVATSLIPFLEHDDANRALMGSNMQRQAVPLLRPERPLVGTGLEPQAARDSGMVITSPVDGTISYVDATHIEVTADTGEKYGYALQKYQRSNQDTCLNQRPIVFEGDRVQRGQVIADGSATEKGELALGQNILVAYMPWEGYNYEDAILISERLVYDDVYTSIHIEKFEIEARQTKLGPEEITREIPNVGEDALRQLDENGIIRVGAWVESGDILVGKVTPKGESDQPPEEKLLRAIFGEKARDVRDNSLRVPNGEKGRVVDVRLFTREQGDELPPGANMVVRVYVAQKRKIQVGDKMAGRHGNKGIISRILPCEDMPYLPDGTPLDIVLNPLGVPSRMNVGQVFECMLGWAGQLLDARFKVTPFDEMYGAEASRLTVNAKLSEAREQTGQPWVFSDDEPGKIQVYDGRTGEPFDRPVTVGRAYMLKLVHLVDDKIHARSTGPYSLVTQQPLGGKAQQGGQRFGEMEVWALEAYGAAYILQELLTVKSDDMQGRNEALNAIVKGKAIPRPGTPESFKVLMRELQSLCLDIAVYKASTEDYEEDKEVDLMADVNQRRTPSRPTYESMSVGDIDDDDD
The test can be described thus: cryo-EM structure; iNTP-free EC-NusG: 5 μM cyRNAP with DNA/RNA scaffold, then 7 μM NusG, 37 °C, storage buffer, CHAPSO added before vitrification; 3 Å; both purified.

Results on two molecules are retold here after paper doi:10.1101/2024.01.11.575193, “Structure and function of the Si3 insertion integrated into the trigger loop/helix of cyanobacterial RNA polymerase” (bioRxiv, 2024).

Results are given in words; binding and its absence hold for the method and conditions named. Some entries that bind do so weakly or less than the wild type.

B1: Synechococcus elongatus NusG (protein, UniProt Q31QK2 1-205)
chain: MTDQYEEQLLSADDSVASEKARWYAVQVASGCEKRVKATLEQRVQTLDAANRILQVEIPETPIVKLKKDGSRQSAEEKVFPGYVLVRMILDDDAWQIVRNTPHVINFVGAEQKRPYGRGRGHVKPMPLSPGEVGRIFKRAQEQKPTVKIDLAEGDQILVLSGPFKDFEGTVIEVSPERSKLKALLSIFGRDTPVELEFNQVQKQN
As to B1, the binding entry in test [1] is recorded as “binds”; in test [2], “binds weakly”; in test [3] it was “binds”.

B2: β'2 subunit of Synechococcus elongatus RNA polymerase (protein, UniProt Q31N15 1-1318)
chain: MAEAKSAPIFRNRVIDKKQLKKLIGWTFAHYGTAKTAVVADDLKALGFRYATRAGVSISIDDLKVPGSKAELLESAEKRIQETEDRYTRGEITEVERFQKVIDTWANTNDELTDRVVKNFRESDPLNSVYMMAFSGARGNISQVRQLVGMRGLMANPQGEIIDLPIKTNFREGLTVTEYIISSYGARKGLVDTALRTADSGYLTRRLVDVSQDVIIHEVDCGTSRGLFVEAMTDGDRILIPISQRLLGRVTAEAVLDPSTDEVLAEAGQDINEDLANRIEKAGIKKVKVRSPLTCEAARSVCQKCYGWSLAHAQMVDMGEAVGIIAAQSIGEPGTQLTMRTFHTGGVFTGETARLLRAPVAGTIKLGKKARTRPYRTRHGEEALLAEANFDLVLEGKGRKETFAILQGSTIFVQDGDKVAAEAILAEVPVSGRTKRTVEKATKDVATDLAGEIRFQDIVPEEKTDRQGNTTRIAQRGGLLWVLAGDVYNLLPGAEPTVKNGDRVEVGDVLAETKLTTERGGTVRMGEDNGSSTHREVEIITASVVLDTATVKAEASQGREHYVIETKGGQRFNLLAAPGTKVTTGHVVAELIDSRYRTQTGGLLKYSGVEISKKGRAKAKQGYEVTKGGTLLWIPEETHEVNKDISLLNVEDGQLVEAGTEVVKDIFCQTTGIVSVTQNNDILREIVIKPGDVHVLDDPDTAAKYDEGRLVNAGEEVFPGLTAEQLVWAEAVDGTDGPLLLLRPVQELVIPDEPPVPSQDSSQESSSRSIRLRAVQRLQFQDGERIKSVEGVDLLRTQLVLESEEGSSQLSADIELLPDSKDPETLRLQLVIIEPVVIRRDVASDTTHGSTHTELRVKDGQKVKPGAVIACTQIQCKEAGVVRGIQEGSEAVRRLLVERERDCVTLDLDVTAATQLQPGSLIVAGTQLVDGIIAPESGEVRAIAPGQLQLRIARPYRVSQGAVLHVEDKGLVQRGDNLVLLVFERAKTGDIIQGLPRIEELLEARKPKEACILARRPGVAHINYSDDDAIDIQVIEADGTQADYPVGPGQPLIISDGETVDAGQALTDGPANPHDLLEIYYDYFREQLGEDYEAALESLRRVQALLVNEVQSVYQSQGIDISDKHIEVIVRQMTSKVRIDDGGDTIMLPGELHELREVYNSNNTMALTGMAPAQFTPVLLGITKASLNTNSFISAASFQETTRVLTEAAIEGKSDWLRGLKENVIIGRLIPAGTGFKAYEESLLTDVDGGYEDRVYDDDLADVVIDDRAARSYTLNEGRDFSRSMTFAEGESMILDDGEELIDDSSASLRNLVDVDED
For B2, the binding result in test [4] is given as “binds”.
